# The list shows a part of the results.
# Assays:
# Assay in all cases: glycan array binding signal (z-score within array); higher = stronger binding
# Conditions in all cases: glycan notation: IUPAC condensed, linker removed
# [1] = biological target: Fuc(a1-2)Gal(b1-4)Glc
# In short: (§1)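 Negative Z-scores can be read as non-binding. The Z-score is calculated within each array and then averaged across arrays of one protein sequence at different concentrations or buffers and across linkers. Arrays, 3228 in all, were curated from the Consortium for Functional Glycomics database and kept only where the protein sequence was available.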
# [2] = biological target: Fuc(a1-2)Gal(b1-4)Glc6S
# In short: as §1
# [3] = biological target: Fuc(a1-2)Gal(b1-4)GlcNAc
# In short: as §1
# [4] = biological target: Fuc(a1-2)Gal(b1-4)GlcNAc(b1-2)Man
# In short: as §1
# [5] = biological target: Fuc(a1-2)Gal(b1-4)GlcNAc(b1-2)Man(a1-3)[Fuc(a1-2)Gal(b1-4)GlcNAc(b1-2)Man(a1-6)]Man(b1-4)GlcNAc(b1-4)GlcNAc
# In short: as §1
# [6] = biological target: Fuc(a1-2)Gal(b1-4)GlcNAc(b1-2)Man(a1-3)[Fuc(a1-2)Gal(b1-4)GlcNAc(b1-2)Man(a1-6)]Man(b1-4)GlcNAc(b1-4)[Fuc(a1-6)]GlcNAc
# In short: as §1
# [7] = biological target: Fuc(a1-2)Gal(b1-4)GlcNAc(b1-2)[Fuc(a1-2)Gal(b1-4)GlcNAc(b1-4)]Man(a1-3)[Fuc(a1-2)Gal(b1-4)GlcNAc(b1-2)Man(a1-6)]Man(b1-4)GlcNAc(b1-4)GlcNAc
# In short: as §1
# [8] = biological target: Fuc(a1-2)Gal(b1-4)GlcNAc(b1-3)Gal(b1-4)GlcNAc
# In short: as §1
# [9] = biological target: Fuc(a1-2)Gal(b1-4)GlcNAc(b1-3)Gal(b1-4)GlcNAc(b1-2)Man(a1-3)[Fuc(a1-2)Gal(b1-4)GlcNAc(b1-3)Gal(b1-4)GlcNAc(b1-2)Man(a1-6)]Man(b1-4)GlcNAc(b1-4)GlcNAc
# In short: as §1
# [10] = biological target: Fuc(a1-2)Gal(b1-4)GlcNAc(b1-3)Gal(b1-4)GlcNAc(b1-3)Gal(b1-4)GlcNAc
# In short: as §1
# [11] = biological target: Fuc(a1-2)Gal(b1-4)GlcNAc(b1-3)GalNAc
# In short: as §1
# [12] = biological target: Fuc(a1-2)Gal(b1-4)GlcNAc(b1-3)[Fuc(a1-2)Gal(b1-4)GlcNAc(b1-6)]GalNAc
# In short: as §1
# [13] = biological target: Fuc(a1-2)Gal(b1-4)GlcNAc(b1-3)[Fuc(a1-3)[Gal(b1-4)]GlcNAc(b1-6)]Gal(b1-4)Glc
# In short: as §1
# [14] = biological target: Fuc(a1-2)Gal(b1-4)GlcNAc(b1-6)GalNAc
# In short: as §1
# [15] = biological target: Fuc(a1-2)Gal(b1-4)GlcNAc6S
# In short: as §1
# [16] = biological target: Fuc(a1-2)Gal(b1-4)[Fuc(a1-3)]GlcNAc
# In short: as §1
# [17] = biological target: Fuc(a1-2)Gal(b1-4)[Fuc(a1-3)]GlcNAc(b1-2)Man(a1-3)[Fuc(a1-2)Gal(b1-4)[Fuc(a1-3)]GlcNAc(b1-2)Man(a1-6)]Man(b1-4)GlcNAc(b1-4)[Fuc(a1-6)]GlcNAc
# In short: as §1
# [18] = biological target: Fuc(a1-2)Gal(b1-4)[Fuc(a1-3)]GlcNAc(b1-2)[Fuc(a1-2)Gal(b1-4)[Fuc(a1-3)]GlcNAc(b1-4)]Man(a1-3)[Fuc(a1-2)Gal(b1-4)[Fuc(a1-3)]GlcNAc(b1-2)Man(a1-6)]Man(b1-4)GlcNAc(b1-4)GlcNAc
# In short: as §1
# [19] = biological target: Fuc(a1-2)Gal(b1-4)[Fuc(a1-3)]GlcNAc(b1-3)Gal(b1-4)[Fuc(a1-3)]GlcNAc
# In short: as §1
# [20] = biological target: Fuc(a1-2)Gal(b1-4)[Fuc(a1-3)]GlcNAc(b1-3)Gal(b1-4)[Fuc(a1-3)]GlcNAc(b1-3)Gal(b1-4)[Fuc(a1-3)]GlcNAc
# In short: as §1
# [21] = biological target: Fuc(a1-2)Gal(b1-4)[Fuc(a1-3)]GlcNAc(b1-3)GalNAc
# In short: as §1
# [22] = biological target: Fuc(a1-2)Gal(b1-4)[Fuc(a1-3)]GlcNAc(b1-3)[Neu5Ac(a2-6)Gal(b1-4)GlcNAc(b1-6)]Gal(b1-4)Glc
# In short: as §1
# [23] = biological target: Fuc(a1-2)Gal3S(b1-4)GlcNAc
# In short: as §1
binder,measurement,setting,value
"CcfD (Bacteroides vulgatus), A6KYX8 (protein) MKYKNYFKSIIYLALGAFTLGSCEDFLDRQEDEKLTFDKIWESRNTTQQYWLNAMSFLPNENGSLQGDTEPYLGASDECTIAYDRQYRWINFGTWNPSQVPYYKMDHYYKGIRECNIFLQNVYKCSDPLVTKDQLDEWYWQTRFARAYYYFLMMRDYGPVFLLGDDLLDFTASTEELYRPRNTWDQCVNYVVSEMTQCAESGVVLQQSDLPAAKWGLATVGTCHAVISRLLLYSARPLFNGNKLYSTVKNPDAPDFPELSGVKLFPELDNTKWQKAAEAAKKLIDNPCYELYRAGNDNPYEDYYGVTHETWNKELIWTDRYNGLFSWGVGTVPTGVAGTAYGAVGPTQALVDAYAMNTGWYPITGYEADGTPIVEPLSGYELASELEKSSWIYPSGGWSNKADFEIEAPNMYKDREPRFYVTVFFGGNQWLHGNSATSISFAKGGNGNKSHDYPKSGYLCNRFYDHKLNSSEGQWGNITFPVFRLGEIYLNFIEAVLECKKNGVALDPSYEALAMEKWADLRKRAGLDPITSIYGQVSTEELIQLCRKERQIELAFERHRYFDTRTWMIATQTDNGKMYGMNTSCPLDAGMKGTETPDGFWERTAFETRVFQNKHYLYPFSQRELDRNKLLTQNYGW",glycan array binding signal (z-score),[1],-1.1
same,glycan array binding signal (z-score),[2],-0.343
same,glycan array binding signal (z-score),[3],0.328
same,glycan array binding signal (z-score),[4],-0.185
same,glycan array binding signal (z-score),[5],4.7
same,glycan array binding signal (z-score),[6],0.806
same,glycan array binding signal (z-score),[7],-0.414
same,glycan array binding signal (z-score),[8],0.902
same,glycan array binding signal (z-score),[9],4.15
same,glycan array binding signal (z-score),[10],-0.912
same,glycan array binding signal (z-score),[11],-0.002
same,glycan array binding signal (z-score),[12],-0.515
same,glycan array binding signal (z-score),[13],-0.398
same,glycan array binding signal (z-score),[14],0.552
same,glycan array binding signal (z-score),[15],1.84
same,glycan array binding signal (z-score),[16],0.509
same,glycan array binding signal (z-score),[17],0.135
same,glycan array binding signal (z-score),[18],0.73
same,glycan array binding signal (z-score),[19],-0.424
same,glycan array binding signal (z-score),[20],-0.104
same,glycan array binding signal (z-score),[21],0.374
same,glycan array binding signal (z-score),[22],-0.744
same,glycan array binding signal (z-score),[23],-0.454

# Reprinted from the results shown (two entries):
binder,measurement,setting,value
"CcfD (Bacteroides vulgatus), A6KYX8 (protein) MKYKNYFKSIIYLALGAFTLGSCEDFLDRQEDEKLTFDKIWESRNTTQQYWLNAMSFLPNENGSLQGDTEPYLGASDECTIAYDRQYRWINFGTWNPSQVPYYKMDHYYKGIRECNIFLQNVYKCSDPLVTKDQLDEWYWQTRFARAYYYFLMMRDYGPVFLLGDDLLDFTASTEELYRPRNTWDQCVNYVVSEMTQCAESGVVLQQSDLPAAKWGLATVGTCHAVISRLLLYSARPLFNGNKLYSTVKNPDAPDFPELSGVKLFPELDNTKWQKAAEAAKKLIDNPCYELYRAGNDNPYEDYYGVTHETWNKELIWTDRYNGLFSWGVGTVPTGVAGTAYGAVGPTQALVDAYAMNTGWYPITGYEADGTPIVEPLSGYELASELEKSSWIYPSGGWSNKADFEIEAPNMYKDREPRFYVTVFFGGNQWLHGNSATSISFAKGGNGNKSHDYPKSGYLCNRFYDHKLNSSEGQWGNITFPVFRLGEIYLNFIEAVLECKKNGVALDPSYEALAMEKWADLRKRAGLDPITSIYGQVSTEELIQLCRKERQIELAFERHRYFDTRTWMIATQTDNGKMYGMNTSCPLDAGMKGTETPDGFWERTAFETRVFQNKHYLYPFSQRELDRNKLLTQNYGW",glycan array binding signal (z-score),[6],0.806
same,glycan array binding signal (z-score),[7],-0.414

# From the supplement of paper PMC8728848
